Experimental data: US20200308165A1, “Compounds as Ras Inhibitors and Use Thereof” (D.E. Shaw Research, LLC, priority 2017, published 2020)
For at least one compound, name, drawing or mass did not settle the structure.

What was measured:
[1] = system: ERK kinase phosphorylation in non-Raf active cells; experiment: ERK kinase phosphorylation assay in cells (CCRF-CEM, HEK293, A375); assay type: cell-based, human; settings: 72 hours, qualitative, band thickness on gel
[2] = molecular target: GDP loaded K-Ras (Homo sapiens, UniProt P01116); experiment: K-Ras thermostability assay (differential scanning fluorimetry); assay type: binding; settings: melting temperature Tm

Row | Compound | ERK kinase phosphorylation [1] | K-Ras thermostability [2]
1 | COC(=O)c1ccc2[nH]c(-n3[nH]c(CSc4nnc(C)s4)c(C)c3=O)nc2c1 [Compound 189, methyl 2-(4-methyl-3-(((5-methyl-1,3,4-thiadiazol-2-yl)thio)methyl)-5-oxo-2,5-dihydro-1H-pyrazol-1-yl)-1H-benzo[d]imidazole-5-carboxylate] | reduces ERK kinase phosphorylation | increased
2 | Cc1nnc(SCc2[nH]n(-c3nc4ccccc4[nH]3)c(=O)c2C)s1 [Compound 188, 2-(1H-benzo[d]imidazol-2-yl)-4-methyl-5-(((5-methyl-1,3,4-thiadiazol-2-yl)thio)methyl)-1,2-dihydro-3H-pyrazol-3-one] | reduces ERK kinase phosphorylation | increased
